This passage reports binding results from publication PMC6619347.

The chains behind the UniProt entries cited, without tags or fusion partners.
UniProt P63208: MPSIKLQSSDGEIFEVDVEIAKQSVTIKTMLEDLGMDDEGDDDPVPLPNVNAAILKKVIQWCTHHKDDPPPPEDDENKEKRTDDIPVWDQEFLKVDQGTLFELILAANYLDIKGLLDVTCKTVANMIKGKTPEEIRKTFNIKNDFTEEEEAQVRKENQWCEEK
UniProt P35222: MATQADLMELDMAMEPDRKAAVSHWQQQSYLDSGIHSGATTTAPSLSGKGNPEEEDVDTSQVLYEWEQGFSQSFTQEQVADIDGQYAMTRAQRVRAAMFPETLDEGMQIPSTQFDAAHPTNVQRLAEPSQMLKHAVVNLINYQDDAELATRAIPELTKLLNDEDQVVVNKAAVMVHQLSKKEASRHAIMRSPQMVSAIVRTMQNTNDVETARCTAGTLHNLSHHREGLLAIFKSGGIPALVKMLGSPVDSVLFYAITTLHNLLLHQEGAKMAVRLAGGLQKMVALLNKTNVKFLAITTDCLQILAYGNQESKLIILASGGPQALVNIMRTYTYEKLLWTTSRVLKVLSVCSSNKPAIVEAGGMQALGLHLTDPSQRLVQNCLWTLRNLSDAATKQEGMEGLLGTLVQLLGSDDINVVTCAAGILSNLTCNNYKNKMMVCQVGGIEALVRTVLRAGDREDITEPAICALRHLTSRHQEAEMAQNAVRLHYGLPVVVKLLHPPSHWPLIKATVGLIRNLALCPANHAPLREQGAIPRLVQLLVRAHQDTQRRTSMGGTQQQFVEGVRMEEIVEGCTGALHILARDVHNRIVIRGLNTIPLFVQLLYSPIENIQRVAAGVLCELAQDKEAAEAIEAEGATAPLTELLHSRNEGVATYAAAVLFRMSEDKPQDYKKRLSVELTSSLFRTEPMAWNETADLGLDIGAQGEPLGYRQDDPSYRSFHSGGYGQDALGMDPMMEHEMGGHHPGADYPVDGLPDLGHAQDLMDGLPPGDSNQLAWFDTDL

For one test, the target named is DDK‐ΔF‐FBXO16 (human) (UniProt Q8IX29). The test is described as follows: co-IP; MDA‐MB‐231 cells coexpressing GFP‐β‐catenin with DDK‐FBXO16 or DDK‐ΔF‐FBXO16 for 36 h, then 5 μM MG132 for 6 h; whole‐cell lysates immunoprecipitated with anti‐DDK antibody, immunoblot.
For the next test, the target named is T1, DDK‐FBXO16 (human) (UniProt Q8IX29).
T1 sequence: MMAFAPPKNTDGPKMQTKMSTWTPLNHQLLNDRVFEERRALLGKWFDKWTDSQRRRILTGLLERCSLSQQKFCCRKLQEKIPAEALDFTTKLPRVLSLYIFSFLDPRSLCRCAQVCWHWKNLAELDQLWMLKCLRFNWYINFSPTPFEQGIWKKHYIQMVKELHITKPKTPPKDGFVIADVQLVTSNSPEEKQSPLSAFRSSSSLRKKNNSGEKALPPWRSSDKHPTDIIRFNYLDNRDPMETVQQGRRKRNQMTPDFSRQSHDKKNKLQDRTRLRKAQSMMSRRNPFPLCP
The test is described as follows: co-IP; cells coexpressing DDK‐FBXO16 and β‐catenin deletion mutants; 40 h after transfection 5 μM MG132 for 6 h; whole‐cell extracts immunoprecipitated with anti‐DDK antibody, immunoblot.

These are yes or no findings as the source states them, for the method shown. In cells and extracts the contact can be indirect. For part of these data: Binding can be weak; no strength is given.

Regarding SKP1 (from UniProt P63208 1-163), the binding result with DDK‐ΔF‐FBXO16 (human) is on record as “no binding”.

As for GFP‐ΔC‐β‐catenin (domain or fragment), the binding result in the test with DDK‐FBXO16 (human) is listed as “no binding”.

For “GFP‐WT‐β‐catenin (from UniProt P35222 1-781)”, the binding entry with DDK‐ΔF‐FBXO16 (human) is “binds”.
